Data as given in the supplement of paper PMC10849652.
The other results are listed elsewhere or left out.

Sequences of proteins named here, by UniProt entry; tags and fusion partners are left off. A change or cut given only in a name is not applied to a line headed by its entry.
UniProt Q13216, whole entry, looked up: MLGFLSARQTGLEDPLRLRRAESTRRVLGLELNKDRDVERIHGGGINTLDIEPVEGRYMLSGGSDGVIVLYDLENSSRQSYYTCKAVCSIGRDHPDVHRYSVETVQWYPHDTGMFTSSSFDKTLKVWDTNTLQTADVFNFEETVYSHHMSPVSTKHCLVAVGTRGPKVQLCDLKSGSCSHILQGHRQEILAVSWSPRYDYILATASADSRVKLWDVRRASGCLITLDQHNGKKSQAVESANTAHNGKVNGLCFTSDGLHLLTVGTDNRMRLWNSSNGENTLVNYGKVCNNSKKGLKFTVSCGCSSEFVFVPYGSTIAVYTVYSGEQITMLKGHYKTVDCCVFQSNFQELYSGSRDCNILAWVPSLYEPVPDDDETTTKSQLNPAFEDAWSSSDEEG
UniProt O75354: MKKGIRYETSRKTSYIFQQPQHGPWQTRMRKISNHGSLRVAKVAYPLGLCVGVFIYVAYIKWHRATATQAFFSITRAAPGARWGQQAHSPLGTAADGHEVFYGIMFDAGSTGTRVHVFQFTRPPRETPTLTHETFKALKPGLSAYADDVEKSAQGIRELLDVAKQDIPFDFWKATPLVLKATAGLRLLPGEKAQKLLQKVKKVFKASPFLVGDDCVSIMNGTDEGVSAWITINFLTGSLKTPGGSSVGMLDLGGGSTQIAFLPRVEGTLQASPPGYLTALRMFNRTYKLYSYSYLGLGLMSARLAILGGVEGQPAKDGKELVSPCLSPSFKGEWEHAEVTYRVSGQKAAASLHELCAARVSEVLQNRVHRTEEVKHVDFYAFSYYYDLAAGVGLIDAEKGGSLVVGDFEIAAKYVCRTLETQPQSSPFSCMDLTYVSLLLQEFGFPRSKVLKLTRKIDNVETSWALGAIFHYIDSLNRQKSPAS
UniProt Q9H2F5, whole entry, looked up: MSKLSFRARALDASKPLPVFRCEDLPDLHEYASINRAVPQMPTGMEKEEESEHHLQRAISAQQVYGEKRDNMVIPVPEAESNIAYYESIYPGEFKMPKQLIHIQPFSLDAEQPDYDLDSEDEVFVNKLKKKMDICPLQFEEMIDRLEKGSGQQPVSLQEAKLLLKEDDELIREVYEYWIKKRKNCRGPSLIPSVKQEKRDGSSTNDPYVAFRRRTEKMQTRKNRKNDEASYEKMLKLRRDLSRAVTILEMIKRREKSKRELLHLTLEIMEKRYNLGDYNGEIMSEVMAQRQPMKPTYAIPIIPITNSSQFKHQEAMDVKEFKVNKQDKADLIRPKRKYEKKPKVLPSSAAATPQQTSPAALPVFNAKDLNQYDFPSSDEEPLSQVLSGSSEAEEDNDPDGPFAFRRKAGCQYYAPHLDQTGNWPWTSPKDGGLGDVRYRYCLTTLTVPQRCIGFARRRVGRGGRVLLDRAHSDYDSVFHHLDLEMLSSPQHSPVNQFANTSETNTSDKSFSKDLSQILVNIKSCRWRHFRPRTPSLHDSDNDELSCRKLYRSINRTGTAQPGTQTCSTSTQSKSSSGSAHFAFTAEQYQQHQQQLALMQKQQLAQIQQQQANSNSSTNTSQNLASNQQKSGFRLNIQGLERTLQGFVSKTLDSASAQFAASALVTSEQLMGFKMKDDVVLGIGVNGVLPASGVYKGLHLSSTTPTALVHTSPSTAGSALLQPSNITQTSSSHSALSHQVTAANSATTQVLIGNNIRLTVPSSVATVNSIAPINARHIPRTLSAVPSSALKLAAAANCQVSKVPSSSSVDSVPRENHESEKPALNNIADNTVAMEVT
UniProt Q05BV3: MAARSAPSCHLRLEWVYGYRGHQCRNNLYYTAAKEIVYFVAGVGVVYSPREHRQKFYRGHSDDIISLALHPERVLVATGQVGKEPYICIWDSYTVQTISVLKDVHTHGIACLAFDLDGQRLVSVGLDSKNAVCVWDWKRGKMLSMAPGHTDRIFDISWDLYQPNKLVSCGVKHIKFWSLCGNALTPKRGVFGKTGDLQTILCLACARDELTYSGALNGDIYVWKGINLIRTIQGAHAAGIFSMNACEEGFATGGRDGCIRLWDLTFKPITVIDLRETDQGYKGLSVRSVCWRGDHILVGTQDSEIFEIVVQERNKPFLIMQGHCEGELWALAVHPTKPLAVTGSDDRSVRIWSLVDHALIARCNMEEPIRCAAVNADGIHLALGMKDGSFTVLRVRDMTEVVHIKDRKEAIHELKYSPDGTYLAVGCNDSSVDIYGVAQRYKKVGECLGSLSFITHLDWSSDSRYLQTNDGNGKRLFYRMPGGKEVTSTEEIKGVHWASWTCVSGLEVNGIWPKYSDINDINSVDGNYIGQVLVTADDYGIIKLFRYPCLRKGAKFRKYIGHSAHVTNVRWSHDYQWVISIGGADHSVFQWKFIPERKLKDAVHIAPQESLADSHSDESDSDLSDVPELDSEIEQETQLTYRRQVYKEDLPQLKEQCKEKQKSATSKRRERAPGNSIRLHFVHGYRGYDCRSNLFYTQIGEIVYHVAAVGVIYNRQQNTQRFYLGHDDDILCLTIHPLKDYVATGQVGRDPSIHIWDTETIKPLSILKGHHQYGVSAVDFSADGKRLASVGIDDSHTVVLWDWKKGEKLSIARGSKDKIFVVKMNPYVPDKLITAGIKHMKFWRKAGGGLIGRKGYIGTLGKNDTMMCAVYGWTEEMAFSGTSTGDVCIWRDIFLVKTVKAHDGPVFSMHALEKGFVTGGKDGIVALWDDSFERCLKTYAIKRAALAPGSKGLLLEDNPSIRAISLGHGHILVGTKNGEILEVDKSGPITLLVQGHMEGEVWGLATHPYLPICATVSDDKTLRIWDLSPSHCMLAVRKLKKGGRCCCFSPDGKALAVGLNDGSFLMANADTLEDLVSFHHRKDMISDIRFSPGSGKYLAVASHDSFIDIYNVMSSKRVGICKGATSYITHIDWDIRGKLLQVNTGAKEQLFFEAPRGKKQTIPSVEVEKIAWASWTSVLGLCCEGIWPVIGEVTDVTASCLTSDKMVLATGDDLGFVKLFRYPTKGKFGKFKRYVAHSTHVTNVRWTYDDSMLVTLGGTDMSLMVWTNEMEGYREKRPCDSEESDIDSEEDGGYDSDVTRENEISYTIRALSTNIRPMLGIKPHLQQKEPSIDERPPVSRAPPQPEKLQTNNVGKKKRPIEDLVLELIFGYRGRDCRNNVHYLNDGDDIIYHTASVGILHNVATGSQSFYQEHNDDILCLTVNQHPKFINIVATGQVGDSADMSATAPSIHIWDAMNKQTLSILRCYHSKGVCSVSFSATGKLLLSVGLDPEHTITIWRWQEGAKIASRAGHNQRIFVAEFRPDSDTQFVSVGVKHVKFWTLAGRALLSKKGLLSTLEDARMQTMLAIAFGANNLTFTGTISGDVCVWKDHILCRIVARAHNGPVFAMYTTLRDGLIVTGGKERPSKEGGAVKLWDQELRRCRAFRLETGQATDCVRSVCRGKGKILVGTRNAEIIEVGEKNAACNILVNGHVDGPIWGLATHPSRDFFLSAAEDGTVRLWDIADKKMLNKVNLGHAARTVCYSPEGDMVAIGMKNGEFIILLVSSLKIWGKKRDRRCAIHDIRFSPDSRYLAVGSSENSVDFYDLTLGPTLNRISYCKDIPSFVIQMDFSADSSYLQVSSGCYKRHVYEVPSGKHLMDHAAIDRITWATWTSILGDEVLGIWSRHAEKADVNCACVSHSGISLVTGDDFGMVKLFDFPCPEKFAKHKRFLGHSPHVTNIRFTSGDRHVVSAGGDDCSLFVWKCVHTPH
UniProt Q9H6S3: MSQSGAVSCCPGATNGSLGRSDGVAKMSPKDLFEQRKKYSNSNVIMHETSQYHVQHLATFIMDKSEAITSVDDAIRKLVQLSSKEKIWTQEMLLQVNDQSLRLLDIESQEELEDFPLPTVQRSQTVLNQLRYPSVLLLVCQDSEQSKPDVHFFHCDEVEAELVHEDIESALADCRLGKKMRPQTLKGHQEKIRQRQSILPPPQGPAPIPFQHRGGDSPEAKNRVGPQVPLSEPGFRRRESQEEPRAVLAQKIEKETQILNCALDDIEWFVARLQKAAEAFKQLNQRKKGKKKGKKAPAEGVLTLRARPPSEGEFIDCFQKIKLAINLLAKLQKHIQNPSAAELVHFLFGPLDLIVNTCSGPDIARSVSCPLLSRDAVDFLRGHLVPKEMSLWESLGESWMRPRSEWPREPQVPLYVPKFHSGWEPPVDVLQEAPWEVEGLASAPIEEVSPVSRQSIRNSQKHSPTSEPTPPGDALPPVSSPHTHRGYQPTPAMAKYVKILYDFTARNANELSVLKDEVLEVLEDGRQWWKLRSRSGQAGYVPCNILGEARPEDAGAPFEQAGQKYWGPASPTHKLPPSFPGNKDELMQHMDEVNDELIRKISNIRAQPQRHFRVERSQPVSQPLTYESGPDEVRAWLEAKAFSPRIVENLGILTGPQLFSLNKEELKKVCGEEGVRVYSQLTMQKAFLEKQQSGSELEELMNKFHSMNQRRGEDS
UniProt P0DP91, whole entry, looked up: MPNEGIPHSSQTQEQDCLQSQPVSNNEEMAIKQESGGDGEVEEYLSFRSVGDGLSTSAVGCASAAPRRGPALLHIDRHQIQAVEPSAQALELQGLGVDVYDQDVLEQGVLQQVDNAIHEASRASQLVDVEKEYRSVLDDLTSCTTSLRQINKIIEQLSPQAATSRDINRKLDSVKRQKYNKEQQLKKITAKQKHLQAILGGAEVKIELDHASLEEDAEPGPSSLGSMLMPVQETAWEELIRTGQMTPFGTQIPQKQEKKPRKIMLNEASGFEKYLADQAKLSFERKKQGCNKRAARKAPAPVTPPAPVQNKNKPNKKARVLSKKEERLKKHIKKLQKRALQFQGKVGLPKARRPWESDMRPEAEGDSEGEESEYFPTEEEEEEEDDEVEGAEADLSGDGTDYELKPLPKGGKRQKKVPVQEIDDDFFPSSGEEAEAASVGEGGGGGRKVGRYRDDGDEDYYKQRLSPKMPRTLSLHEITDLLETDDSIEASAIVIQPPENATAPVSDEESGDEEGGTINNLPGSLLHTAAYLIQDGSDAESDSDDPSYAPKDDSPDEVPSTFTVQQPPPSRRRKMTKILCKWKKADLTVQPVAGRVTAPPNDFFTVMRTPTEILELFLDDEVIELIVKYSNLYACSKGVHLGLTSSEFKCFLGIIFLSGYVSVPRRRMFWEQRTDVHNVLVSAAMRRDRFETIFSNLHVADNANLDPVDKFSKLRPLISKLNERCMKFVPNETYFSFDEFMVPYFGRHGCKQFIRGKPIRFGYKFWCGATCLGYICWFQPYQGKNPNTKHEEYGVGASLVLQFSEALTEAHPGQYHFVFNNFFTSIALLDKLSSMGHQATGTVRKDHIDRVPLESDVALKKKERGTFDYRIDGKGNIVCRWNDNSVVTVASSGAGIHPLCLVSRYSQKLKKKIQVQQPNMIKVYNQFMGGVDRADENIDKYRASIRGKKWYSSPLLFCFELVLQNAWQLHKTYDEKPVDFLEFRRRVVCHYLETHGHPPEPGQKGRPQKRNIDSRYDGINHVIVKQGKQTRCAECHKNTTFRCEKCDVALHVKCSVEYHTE
UniProt Q6P179: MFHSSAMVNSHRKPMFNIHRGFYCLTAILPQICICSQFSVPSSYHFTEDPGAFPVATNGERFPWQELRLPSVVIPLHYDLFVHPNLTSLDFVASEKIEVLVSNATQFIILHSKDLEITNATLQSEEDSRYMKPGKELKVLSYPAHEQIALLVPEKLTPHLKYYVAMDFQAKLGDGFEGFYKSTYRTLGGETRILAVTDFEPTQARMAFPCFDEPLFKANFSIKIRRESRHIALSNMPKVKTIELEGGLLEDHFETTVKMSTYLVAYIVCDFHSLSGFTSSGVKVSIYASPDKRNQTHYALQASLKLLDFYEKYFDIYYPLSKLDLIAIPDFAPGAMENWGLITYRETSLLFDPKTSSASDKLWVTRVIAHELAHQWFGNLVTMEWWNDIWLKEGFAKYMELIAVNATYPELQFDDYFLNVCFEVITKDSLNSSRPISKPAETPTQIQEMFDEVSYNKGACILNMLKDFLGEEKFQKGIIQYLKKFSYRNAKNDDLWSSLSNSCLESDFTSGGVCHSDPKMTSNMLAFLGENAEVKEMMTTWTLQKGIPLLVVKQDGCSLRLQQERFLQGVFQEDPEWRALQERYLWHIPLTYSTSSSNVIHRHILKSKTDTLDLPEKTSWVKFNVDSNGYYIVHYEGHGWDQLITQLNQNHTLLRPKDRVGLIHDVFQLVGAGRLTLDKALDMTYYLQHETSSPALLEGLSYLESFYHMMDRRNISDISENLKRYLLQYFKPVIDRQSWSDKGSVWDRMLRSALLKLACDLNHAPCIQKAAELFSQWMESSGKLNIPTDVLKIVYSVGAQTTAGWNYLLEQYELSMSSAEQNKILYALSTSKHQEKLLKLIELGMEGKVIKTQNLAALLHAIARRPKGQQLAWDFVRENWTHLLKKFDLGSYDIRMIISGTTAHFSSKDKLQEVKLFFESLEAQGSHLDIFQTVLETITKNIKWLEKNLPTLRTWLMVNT

Legend:
Test in all cases: log2 fold change, soluble protein after heating vs DMSO (PISA); higher = thermal stabilisation; K562 lysate, 10 uM; active = over 0.2 and 3.5 SD of the protein, either way, in both replicates (recomputed)
[1] = compound: NCC(=O)Nc1ccc(-n2nc(C(F)(F)F)cc2-c2ccc3c(ccc4ccccc43)c2)cc1
How it was run: (§1)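 Quantification was by TMTpro 16plex LC-MS/MS with equalised channel sums, applied to the supernatant after 21,000xg for 90 min. Samples were crude K562 extract at 1 mg/mL protein in PBS pH 7.4 with 1 mM MgCl2, treated with 10 μM compound for 30 min, heated for 3 min across 48°C-58°C, pooled and brought to 0.5% NP-40 at 4°C. Values are log-two fold changes in thermal stability relative to solvent controls, from duplicates.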

[2] = compound: O=C(CCCCCCC(=O)Nc1ccccc1)NO [vorinostat]
How it was run: as §1

[3] = compound: O=C(O)c1ccc2c(c1)nc(Nc1cccc(Cl)c1)c1ccncc12 [silmitasertib]
How it was run: as §1

[4] = compound: c1cn2cc(-c3ccc4cn[nH]c4c3)nc(Nc3ccc(N4CCOCC4)cc3)c2n1 [entospletinib]
How it was run: as §1

[5] = compound: O=C1NC(=O)C(c2cnc3ccccn23)=C1c1cn2c3c(cc(F)cc13)CN(C(=O)N1CCCCC1)CC2
How it was run: as §1

Row | Target | log2 fold change [1] | log2 fold change [2] | log2 fold change [3] | log2 fold change [4] | log2 fold change [5]
1 | ERCC6 (UniProt Q03468) | inactive: -0.067 | inactive: 0.025 | inactive: -0.019 | inactive: -0.045 | –
2 | EIF4A1 (UniProt J3KS25) | inactive: -0.055 | – | – | inactive: -0.063 | –
3 | EIF2AK3 (UniProt Q9NZJ5) | – | inactive: -0.142 | inactive: 0.241 | – | –
4 | EPN1 isoform 3 (UniProt Q9Y6I3) | – | inactive: 0.36 | inactive: -0.157 | – | inactive: -0.083
5 | ERCC8 (UniProt Q13216) | – | – | – | – | inactive: -0.039
6 | EPS15L1 (UniProt M0QY01) | inactive: 0.031 | inactive: 0.059 | inactive: -0.028 | inactive: 0 | –
7 | ENTPD6 (UniProt O75354) | – | inactive: 0.066 | inactive: -0.042 | – | inactive: -0.142
8 | EPC1 (UniProt Q9H2F5) | – | – | – | – | inactive: 0.171
9 | EML5 isoform 5 (UniProt Q05BV3) | – | inactive: -0.041 | inactive: -0.011 | – | inactive: -0.057
10 | EPS8L2 (UniProt Q9H6S3) | – | inactive: 0.017 | inactive: -0.019 | active: 0.33 | inactive: 0.026
11 | ERCC6 (UniProt P0DP91) | – | inactive: -0.153 | inactive: -0.227 | inactive: 0.078 | –
12 | EPC2 (UniProt Q52LR7) | inactive: 0.24 | – | – | inactive: -0.033 | inactive: -0.004
13 | ELOF1 (UniProt P60002) | – | inactive: 0.497 | inactive: 0.07 | – | inactive: 0.157
14 | ERAP2 (UniProt Q6P179) | – | inactive: 0.163 | inactive: -0.007 | inactive: 0.002 | inactive: 0.1

Numbers 6 to 7, quoted:
Row | Target | log2 fold change [1] | log2 fold change [2] | log2 fold change [3] | log2 fold change [4] | log2 fold change [5]
6 | EPS15L1 (UniProt M0QY01) | inactive: 0.031 | inactive: 0.059 | inactive: -0.028 | inactive: 0 | –
7 | ENTPD6 (UniProt O75354) | – | inactive: 0.066 | inactive: -0.042 | – | inactive: -0.142
